Test results: patent US6403600B1, “Methoximinophenylacetic acid amides” (Bayer Aktiengesellschaft, priority 1998, dated 2002)
Some results were stated once for a whole list of compounds, not compound by compound.

Experiments:
Format in all cases: in vivo
[1] = system: Plasmopara viticola; assay: Plasmopara test (grapevine)/protective; details: protective, application rate 100 g/ha, evaluation 6 days after inoculation
[2] = system: Sphaerotheca fuiginea; assay: Sphaerotheca test (cucumber)/protective; details: protective, application rate 100 g/ha, evaluation 10 days after inoculation
[3] = system: Podosphaera leucotricha; assay: Podosphaera test (apple)/protective; details: protective, application rate 100 g/ha, evaluation 10 days after inoculation
[4] = system: Venturia inaequalis; assay: Venturia test (apple)/protective; details: protective, application rate 10 g/ha, evaluation 12 days after inoculation

Measured: efficacy

CON=C(C(=O)N(C)SC(=O)OC)c1ccccc1COc1ccccc1C [Example 1, 2-methoximino-2-[2-(methylphenoxy)-methylphenyl]-N-methyl-N-methoxycarbonylthio-acetamide]
≥ 90%: all assays above

CON=C(C(=O)N(C)SC(F)(Cl)Cl)c1ccccc1Oc1ncnc(Oc2ccccc2Cl)c1F [Example 3]
≥ 90%: [1] | [2] | [4]

CON=C(C(=O)N(C)SC(Cl)(Cl)Cl)c1ccccc1COc1ccccc1C [Example 6]
≥ 90%: all assays above

CON=C(C(=O)N(C)Sc1ccc(F)cc1)c1ccccc1COc1ccccc1C [Example 7]
≥ 90%: all assays above

CON=C(C(=O)N(C)SN(C)C(=O)OC)c1ccccc1COc1ccccc1C [Example 8]
≥ 90%: [1] | [2] | [4]

CCCCN(CCCC)SN(C)C(=O)C(=NOC)c1ccccc1COc1ccccc1C [Example 9]
≥ 90%: [1] | [2] | [4]

CON=C(C(=O)N(C)C#N)c1ccccc1COc1ccccc1C [Example 10]
≥ 90%: [3] | [4]

CON=C(C(=O)N(C)Sc1ccc(OC)cc1)c1ccccc1COc1ccccc1C [Example 11]
≥ 90%: all assays above

CCOC(=O)N(C)C(=O)C(=NOC)c1ccccc1COc1ccccc1C [Example 12]
≥ 90%: [2] | [4]

CON=C(C(=O)N(C)Sc1ccc(C(=O)OC)cc1)c1ccccc1COc1ccccc1C [Example 13]
≥ 90%: all assays above

CON=C(C(=O)N(C)C(=O)OCC(C)C)c1ccccc1COc1ccccc1C [Example 14]
≥ 90%: [4]

CCCCOP(=O)(OC)N(C)C(=O)C(=NOC)c1ccccc1COc1ccccc1C (stereo not drawn) [Example 15]
≥ 90%: [4]

CON=C(C(=O)N(C)Sc1ccc(Cl)cc1)c1ccccc1COc1ccccc1C [Example 20]
≥ 90%: all assays above

CON=C(C(=O)N(C)Sc1ccccc1)c1ccccc1COc1ccccc1C [Example 21]
≥ 90%: all assays above

CON=C(C(=O)N(C)Sc1cccc(C(F)(F)F)c1)c1ccccc1COc1ccccc1C [Example 22]
≥ 90%: all assays above

CON=C(C(=O)N(C)Sc1ccc(OC(F)(F)F)c(Cl)c1)c1ccccc1COc1ccccc1C [Example 23]
≥ 90%: all assays above

CON=C(C(=O)N(C)Sc1ccc(C)cc1)c1ccccc1COc1ccccc1C [Example 24]
≥ 90%: [1] | [2] | [4]

CON=C(C(=O)N(C)Sc1ccc(Cl)c(C(F)(F)F)c1)c1ccccc1COc1ccccc1C [Example 25]
≥ 90%: [1] | [2] | [4]

CON=C(C(=O)N(C)C(=O)C(=O)OC)c1ccccc1COc1ccccc1C [Example 26]
≥ 90%: all assays above

CON=C(C(=O)N(C)SC(F)(Cl)Cl)c1ccccc1CON=C(C)c1cccc(C(F)(F)F)c1 [Example 32]
≥ 90%: all assays above

CON=C(C(=O)N(C)SC(=O)OC)c1ccccc1CON=C(C)c1cccc(C(F)(F)F)c1 [Example 40]
≥ 90%: all assays above

CON=C(C(=O)N(C)SC(F)(Cl)Cl)c1ccccc1Oc1ccc(OC(F)(F)F)cc1Cl [Example 44]
≥ 90%: [1] | [2] | [4]

CON=C(C(=O)N(C)SN(C)C(=O)C(=NOC)c1ccccc1COc1ccccc1C)c1ccccc1COc1ccccc1C [Example 45]
≥ 90%: [2]

CCSN(C)C(=O)C(=NOC)c1ccccc1COc1ccccc1C [Example 52]
≥ 90%: all assays above

CON=C(C(=O)N(C)SC)c1ccccc1COc1ccccc1C [Example 54]
≥ 90%: all assays above

CON=C(C(=O)N(C)SC(C)(C)C)c1ccccc1COc1ccccc1C [Example 55]
≥ 90%: [1] | [2] | [4]

CON=C(C(=O)N(C)SC(F)(F)F)c1ccccc1COc1ccccc1C [Example 56]
≥ 90%: all assays above

CON=C(C(=O)N(C)SC(C)(F)F)c1ccccc1COc1ccccc1C [Example 57]
≥ 90%: all assays above

CON=C(C(=O)N(SC(F)(F)F)C1CC1)c1ccccc1COc1ccccc1C [Example 61]
≥ 90%: [1] | [2] | [3]

CON=C(C(=O)N(C)SC(F)(F)F)c1ccccc1COc1cccc(-c2ccccc2)c1 [Example 66]
≥ 90%: all assays above

CON=C(C(=O)N(C)SC(F)(Cl)Cl)c1ccccc1COc1cc(F)ccc1F [Example 69]
≥ 90%: [1] | [2] | [3]

CON=C(C(=O)N(C)SC(F)(F)F)c1ccccc1COc1cc(F)ccc1F [Example 70]
≥ 90%: [1] | [3]

CON=C(C(=O)N(C)SC)c1ccccc1CON=C(C)c1cccc(C(F)(F)F)c1 [Example 71]
≥ 90%: [1] | [2] | [4]

CON=C(C(=O)N(C)Sc1ccccc1)c1ccccc1CON=C(C)c1cccc(C(F)(F)F)c1 [Example 72]
≥ 90%: all assays above

CCSN(C)C(=O)C(=NOC)c1ccccc1CON=C(C)c1cccc(C(F)(F)F)c1 [Example 73]
≥ 90%: [1] | [2] | [4]

CON=C(C(=O)N(C)SC(F)(Cl)Cl)c1ccccc1Oc1ncnc(Oc2ccccc2OC(F)(F)F)c1F [Example 93]
≥ 90%: [1] | [2] | [4]

CON=C(C(=O)N(C)SC(F)(Cl)Cl)c1ccccc1Oc1ncnc(Oc2c(C)cccc2C)c1F [Example 97]
≥ 90%: [1] | [2] | [4]
